A short description of this experiment: qHTS Assay to Find Inhibitors of Chronic Active B-Cell Receptor Signaling. As to conditions: ABC-DLBCL IkBa-CBG/CBR reporter, luminescence ratio (green luciferase fused to IkBa over red control in TMD8 lymphoma cells), 4 h. In short, it runs like this: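 Concentration-response series (up to 46 uM) were applied to TMD8 dual-reporter cells for 4 h at 37C with doxycycline. Green/red ratio, after filter-overlap correction, defined %Activity; red signal alone was normalised to basal cells and zero luminescence.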
On the technique in general: In qHTS, concentration-response curves come from the screen itself.

Setting [1] is: measured here: CBR red luminescence, cell number.
Where [2] appears, read: measured here: IkBa-CBG green luminescence.

Some of the results follow. These are further read-outs of the screen, such as a control signal, another cell line or another target. No call is given for them. The list favours compounds with an active or inconclusive main result. Potencies come from curve fits of mixed quality, noted in brackets.

The term AC50 denotes the concentration giving half of the maximal activity seen. Take `Cc1ccc(C)c2sc(NC(=O)CN3C(=O)CCC3=O)nc12`: the AC50 is, setting by setting: under setting [1], 7.08 µM [falling, full curve, poor fit]; under setting [2], 4.47 µM [rising, full curve, poor fit].

Take `COC(=O)[C@]1(Cc2ccccc2)N[C@H](c2ccc(SC3CCCCC3)c(OC)c2)[C@@H]2C(=O)N(C)C(=O)[C@@H]21`: under setting [1], the AC50 was 10.3 µM [falling, partial curve, poor fit].

Regarding `NS(=O)(=O)c1ccc(CCNCc2ccccc2OCc2ccc(F)cc2)cc1`, the AC50 under setting [1] is 35.5 µM [falling, single point].

For `CCN(CC)S(=O)(=O)c1ccc2oc(SCC3CN=C(c4ccc(OC)cc4)S3)nc2c1` (stereo not drawn), under setting [1], the AC50 is 3.16 µM [rising, partial curve, poor fit].

With `NC(=O)/C=C\C(=O)Nc1cccc(C(F)(F)F)c1`, the AC50 under setting [1] is 11.2 µM [falling, partial curve, poor fit].

`CCN(CC)C(=O)c1[nH]cnc1C(=O)N[C@@H](CC(C)C)C(=O)OCc1ccccc1`: the AC50 under setting [1] was 1.26 µM [falling, full curve, poor fit].

Regarding `O=[N+]([O-])c1ccc(NC(=S)NCc2ccc(F)cc2)cc1`, the AC50 under setting [1] was 25.1 µM [falling, single point].

In the case of `O=[N+]([O-])c1cccnc1SCc1c(F)cccc1Cl`, the AC50 under setting [2] is 11.2 µM [falling, partial curve].

On to `COc1ccccc1-c1nnc(NC(=O)c2ccccc2F)o1`, for which the AC50 under setting [1] was 8.2 µM [falling, partial curve, poor fit].

With `Cc1ccc(CC(=O)Nc2ccc(F)c([N+](=O)[O-])c2)cc1C`, under setting [2], the AC50 was 15.8 µM [rising, partial curve, poor fit].

As for `COc1cccc(NC(=O)[C@H](CC(C)C)NC(=O)[C@@H]2Cc3ccccc3CN2)c1`, the AC50 under setting [1] was 0.112 µM [falling, full curve, poor fit].

On to `O=C(NCc1ccccc1)c1cccc(NC(=O)c2ccco2)c1`, for which the AC50 under setting [1] was 12.6 µM [falling, partial curve, poor fit].

As for `Cc1cccc(-n2ncc3c(NNC(=O)c4ccco4)ncnc32)c1`, the AC50 under setting [1] was 0.891 µM [falling, full curve].

In the case of `Cc1ccc(C(=O)C(C)Oc2ccc3ccc(=O)oc3c2)cc1` (stereo not drawn), the AC50 under setting [1] is 15.8 µM [falling, single point].

For `COc1cc(/C=N/NC(=O)c2ccc3nc[nH]c3c2)cc(OC)c1OC`, the concentration at half-maximal activity (AC50) under setting [1] is 35.5 µM [falling, single point].

Consider `O=C(CSc1ccccc1)NCCCc1ccccc1`, for which, under setting [1], the AC50 was 1.58 µM [rising, full curve].

For the molecule `N#Cc1ccsc1NC(=O)COC(=O)c1cc(Br)ccc1O`, the AC50 under setting [1] was 11.2 µM [falling, partial curve, poor fit].

As to `Cc1ccc(C(=O)c2cncc(Br)c2)cc1`, the AC50 under setting [1] was 4.61 µM [falling, partial curve, poor fit].

With `Cc1ccc(S(=O)(=O)N2CCC(C(=O)NCc3ccncc3)CC2)cc1`, the AC50 under setting [1] was 3.66 µM [falling, single point].

As for `COc1cccc(C(=O)NC(=S)Nc2ccccc2N2CCCCC2)c1`, the AC50 under setting [1] is 22.4 µM [rising, single point].

Regarding `CCOc1c(OC(C)=O)ccc(/C=C/c2ccc3cccc(OC(C)=O)c3n2)c1[N+](=O)[O-]`, the AC50 was 35.5 µM [falling, single point] under setting [1] and 35.5 µM [rising, partial curve, poor fit] under setting [2].

Turning to `CCN(Cc1ccncc1)C(=O)CC1C(=O)NCCN1Cc1ccc(F)c(F)c1` (stereo not drawn), the AC50 under setting [1] is 0.316 µM [rising, full curve, poor fit].

With `Cc1cc(C)nc(NC(=O)Cc2cccs2)n1`, under setting [1], the AC50 was 0.651 µM [rising, full curve, poor fit].

With `Cc1ccc(NC(=O)C(c2ccc(Cl)cc2Cl)N2CCCC2)cc1` (stereo not drawn), the AC50 under setting [1] is 25.9 µM [falling, single point].

Take `CNc1snc(C)c1C(=O)OCC(=O)c1ccc(Cl)cc1`: the AC50 under setting [1] was 0.326 µM [rising, partial curve, poor fit].

As to `CCC(C)C1C(C#N)=C(N)Oc2n[nH]c(-c3ccccc3)c21` (stereo not drawn), under setting [1], the AC50 was 36.6 µM [falling, partial curve, poor fit].

Take `O=C(Nc1nc(-c2ccccc2)c(C(=O)c2ccccc2)s1)c1ccc(S(=O)(=O)N2CCCCC2)cc1`: the AC50 under setting [1] was 25.9 µM [falling, partial curve, poor fit].

Regarding `Clc1cccc(Nc2c3c(nc4ncnn24)CCC3)c1`, the AC50 under setting [1] is 18.4 µM [rising, single point].

Take `O=C(Oc1c(CN2CCOCC2)cc(Cl)c2cccnc12)c1cccs1`: the AC50 is 0.794 µM [falling, full curve] under setting [1] and 1.12 µM [falling, full curve, poor fit] under setting [2].

In the case of `Nc1ccc2c(c1)nnn2-c1ccccc1`, the AC50 under setting [1] was 11.2 µM [falling, partial curve].

Take `CNc1nc(-c2ccc(OC)cc2)c(-c2ccc(OC)cc2)s1`: the AC50 under setting [2] was 17.8 µM [falling, partial curve, poor fit].

On to `O=C1CC(c2ccccc2)Cc2nc3ncnn3cc21` (stereo not drawn), for which the AC50 by setting is: under setting [1], 23.1 µM [rising, partial curve, poor fit]; under setting [2], 10.3 µM [falling, partial curve, poor fit].

As for `O=C(CCCN1C(=O)/C(=C/c2cccs2)SC1=S)Nc1ccc(C(=O)O)cc1`, the AC50 under setting [1] was 11.2 µM [falling, partial curve].

For the molecule `COc1ccccc1NC(=O)CNC(=O)c1ccccc1C`, the AC50 under setting [1] was 0.58 µM [falling, full curve].

On to `COc1cccc(/C=C/C(=O)NNC(=O)c2ccccc2)c1OC`, for which the AC50 under setting [1] was 25.9 µM [falling, single point].

On to `Cc1ccccc1OCCNc1cc(N2CC(C)NC(C)C2)ccc1[N+](=O)[O-]` (stereo not drawn), for which the AC50 under setting [1] was 15.8 µM [falling, partial curve].

Regarding `c1ccc2cc(C3CCCCC3)ncc2c1`, the AC50 under setting [1] is 14.6 µM [rising, partial curve, poor fit].

As to `O=C1c2ccccc2C(Nc2ccc(S(=O)(=O)N3CCCCCC3)cc2)N1Cc1ccco1` (stereo not drawn), the AC50 was 5.8 µM [falling, partial curve] under setting [1] and 7.31 µM [rising, partial curve, poor fit] under setting [2].

The values are drawn from PubChem BioAssay AID493014 (National Center for Advancing Translational Sciences (NCATS), 2011).
